± gives the standard deviation of the averaged measurements. This is one part of the list.
The molecules below were run on APPdp1-6 iPSC-derived neurons (assay: pThr231Tau/total Tau ratio Z-score vs DMSO vehicle wells; higher = more pThr231Tau relative to total Tau). Settings: 5 µM; treatment time 5 days.

SMILES	pThr231Tau/total Tau ratio Z-score
Cc1c(Cl)cccc1Nc1ccccc1C(=O)O [Prestw-205]	-0.53 ± 0.95
Cc1ccc(N(CC2=NCCN2)c2cccc(O)c2)cc1 [Prestw-230]	0.464 ± 0.74
CCc1ccc(CCOc2ccc(CC3SC(=O)NC3=O)cc2)nc1 (configuration not stated) [Prestw-1314]	0.812 ± 1.1
CC(C(=O)O)c1cccc(Oc2ccccc2)c1 (configuration not stated) [Prestw-754]	0.372 ± 0.92
O=C1OC(c2ccc(O)cc2)(c2ccc(O)cc2)c2ccccc21 [PHENOLPHTHALEIN    Therap cat:  Cathartic]	-3.73 ± 0.57
CCCc1ncc(C[n+]2ccccc2C)c(N)n1 [Prestw-8]	-0.159 ± 1.7
Cc1ccccc1N1CCN(C2CCc3cc(O)ccc3C2)CC1 (configuration not stated)	1.06 ± 1.2
Oc1cccc2cc3cccc(O)c3c(O)c12 [Prestw-1224]	0.133 ± 1.9
C=CCc1ccc(O)c(OC)c1	-0.118 ± 0.2
CC(=O)OCC(=O)NCCCOc1cccc(CN2CCCCC2)c1 [Prestw-428]	0.199 ± 0.72
CCn1cc(C(=O)O)c(=O)c2cc(F)c(N3CCNCC3)nc21 [Prestw-1401]	-1.33 ± 1.2
CC(C)(C)C(=O)OCOC(=O)[C@@H]1N2C(=O)[C@@H](/N=C/N3CCCCCC3)[C@H]2SC1(C)C [Prestw-1053]	-0.329 ± 0.57
CNc1ncnc2c1ncn2[C@@H]1O[C@H](CO)[C@@H](O)[C@H]1O [Prestw-338]	0.698 ± 0.42
c1ccc2c(c1)CCCC2C1=NCCN1 (configuration not stated) [Prestw-698]	-0.347 ± 0.18
CCCCCN(C)CCC(O)(P(=O)(O)O)P(=O)(O)O [Prestw-1285]	-0.95 ± 0.31
C1N2CN3CN1CN(C2)C3 [Prestw-1282]	-0.614 ± 0.74
O=C1NCCN1c1ncc([N+](=O)[O-])s1 [Prestw-469]	-0.349 ± 0.36
C=C(CC)C(=O)c1ccc(OCC(=O)O)c(Cl)c1Cl [Prestw-259]	0.407 ± 2.3
CC(C)c1nc(N(C)S(C)(=O)=O)nc(-c2ccc(F)cc2)c1/C=C/[C@@H](O)C[C@@H](O)CC(=O)O [ROSUVASTATIN CALCIUM, antihyperlipidemic]	-2.14 ± 0.49

SMILES	pThr231Tau/total Tau ratio Z-score
Nc1ccc(S(=O)(=O)NC(=O)c2ccccc2)cc1 [Prestw-711]	-0.58 ± 0.04
Cc1cccc(C)c1NC(=O)c1ccccc1C(=O)O	0.762 ± 0.57
CS(=O)(=O)c1ccc([C@@H](O)[C@@H](CF)NC(=O)C(Cl)Cl)cc1 [Prestw-955]	-0.543 ± 1.2
CCN(CC)CCCC(C)Nc1ccnc2cc(Cl)ccc12 (configuration not stated) [Prestw-548]	-0.266 ± 1.4
CCCCCCCCCCCCCCCC(=O)O[C@@H]1[C@@H](O)[C@@H](O)[C@@H]([C@H](NC(=O)[C@@H]2C[C@@H](CCC)CN2C)[C@H](C)Cl)O[C@@H]1SC	1.17 ± 0.089
Cc1cc(CC(=O)O)n(C)c1C(=O)c1ccc(Cl)cc1 [Prestw-779]	-0.484 ± 0.97
CC(C)C[C@@H]1NC(=O)[C@H](CCCN)NC(=O)[C@H](C(C)C)NC(=O)[C@H](Cc2ccc(O)cc2)N[C@@H](CCC(=O)O)C(=O)N[C@@H](CC(N)=O)C(=O)[C@@H](Cc2ccccc2)NC(=O)[C@H](Cc2ccccc2)NC(=O)[C@@H]2CCCN2C(=O)[C@@H](Cc2ccccc2)NC1=O [TYROTHRICIN    Therap cat:  Topical antibacterial]	-4.92 ± 1
CCC(=O)c1c(O)cc(O)cc1O [FLOPROPIONE    Therap cat:  Antispasmodic]	0.864 ± 0.86
CC1Cc2ccccc2N1NC(=O)c1ccc(Cl)c(S(N)(=O)=O)c1 (configuration not stated) [Prestw-220]	-0.396 ± 0.26
Nc1ccc(S(=O)(=O)Nc2ccnn2-c2ccccc2)cc1 [Prestw-21]	0.593 ± 1.6
O=C(NCC(O)CO)c1c(I)c(C(=O)NCC(O)CO)c(I)c(N(CCO)C(=O)CO)c1I (configuration not stated) [Prestw-878]	1.08 ± 0.16
CO/N=C(\C(=O)N[C@@H]1C(=O)N2C(C(=O)O)=C(COC(N)=O)CS[C@H]12)c1ccco1 [Prestw-720]	0.58
C[C@H](O)C(=O)Nc1c(I)c(C(=O)NC(CO)CO)c(I)c(C(=O)NC(CO)CO)c1I [Prestw-871]	1.03 ± 0.25
CC(C)CC(=O)N[C@H](C(=O)N[C@H](C(=O)N[C@@H](CC(C)C)[C@@H](O)CC(=O)N[C@@H](C)C(=O)N[C@@H](CC(C)C)[C@@H](O)CC(=O)O)C(C)C)C(C)C [Prestw-405]	-0.0214 ± 0.1
O=c1cc[nH]c(=S)[nH]1 [2-THIOURACIL    Therap cat: thyroid depressant]	1.13 ± 2.2
CC[C@H]1OC(=O)[C@H](C)[C@@H](O[C@H]2C[C@@](C)(OC)[C@@H](O)[C@H](C)O2)[C@H](C)[C@@H](O[C@@H]2O[C@H](C)C[C@H](N(C)C)[C@H]2O)[C@](C)(O)C[C@@H](C)[C@@H]2N[C@@H](COCCOC)O[C@H]([C@H]2C)[C@]1(C)O [Prestw-557]	0.0566 ± 0.054
O=C1CC2(CCCC2)CC(=O)N1CCCCN1CCN(c2ncccn2)CC1 [Prestw-1283]	1.31 ± 0.68
O=C(O)/C=C/c1ccc(Cn2ccnc2)cc1 [Prestw-979]	-0.918 ± 0.11

Filtered by structure, the compounds so far containing a Cl atom.
SMILES	pThr231Tau/total Tau ratio Z-score
Cc1c(Cl)cccc1Nc1ccccc1C(=O)O [Prestw-205]	-0.53 ± 0.95
C=C(CC)C(=O)c1ccc(OCC(=O)O)c(Cl)c1Cl [Prestw-259]	0.407 ± 2.3
CS(=O)(=O)c1ccc([C@@H](O)[C@@H](CF)NC(=O)C(Cl)Cl)cc1 [Prestw-955]	-0.543 ± 1.2
CCN(CC)CCCC(C)Nc1ccnc2cc(Cl)ccc12 (configuration not stated) [Prestw-548]	-0.266 ± 1.4
CCCCCCCCCCCCCCCC(=O)O[C@@H]1[C@@H](O)[C@@H](O)[C@@H]([C@H](NC(=O)[C@@H]2C[C@@H](CCC)CN2C)[C@H](C)Cl)O[C@@H]1SC	1.17 ± 0.089
Cc1cc(CC(=O)O)n(C)c1C(=O)c1ccc(Cl)cc1 [Prestw-779]	-0.484 ± 0.97
CC1Cc2ccccc2N1NC(=O)c1ccc(Cl)c(S(N)(=O)=O)c1 (configuration not stated) [Prestw-220]	-0.396 ± 0.26
